Only a part is listed here, and it is no random draw. Calls are pooled over several reports, among them a noisy single-well screen. The list shows a part of the results.
How the values were obtained:
Conditions in all cases: stereoisomer not certain
O52R1 = tested on: T1, O52R1
T1 sequence (whole entry): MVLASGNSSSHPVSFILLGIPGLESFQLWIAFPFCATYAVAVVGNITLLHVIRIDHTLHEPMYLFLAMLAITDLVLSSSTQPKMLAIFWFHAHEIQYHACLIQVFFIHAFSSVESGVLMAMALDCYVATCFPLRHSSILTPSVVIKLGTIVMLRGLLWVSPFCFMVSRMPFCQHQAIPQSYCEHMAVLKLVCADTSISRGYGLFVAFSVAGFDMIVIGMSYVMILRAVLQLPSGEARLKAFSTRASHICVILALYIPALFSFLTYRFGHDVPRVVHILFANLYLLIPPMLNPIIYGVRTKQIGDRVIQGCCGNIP
Procedure, shortened: (§1)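 Values were gathered from published papers (main text and supplementary material), with extra details requested from the original authors when needed, and checked for typos and inconsistencies. Each receptor–molecule pair is called responsive (active) if the original authors judged the measured signal statistically different from baseline, and non-responsive (inactive) otherwise. Assay methods varied by source, often transient mammalian cell-line luciferase assays. Recorded details include cell line, G-protein, co-transfected protein and tags.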

O52W1 = tested on: T2, O52W1
T2 sequence (whole entry): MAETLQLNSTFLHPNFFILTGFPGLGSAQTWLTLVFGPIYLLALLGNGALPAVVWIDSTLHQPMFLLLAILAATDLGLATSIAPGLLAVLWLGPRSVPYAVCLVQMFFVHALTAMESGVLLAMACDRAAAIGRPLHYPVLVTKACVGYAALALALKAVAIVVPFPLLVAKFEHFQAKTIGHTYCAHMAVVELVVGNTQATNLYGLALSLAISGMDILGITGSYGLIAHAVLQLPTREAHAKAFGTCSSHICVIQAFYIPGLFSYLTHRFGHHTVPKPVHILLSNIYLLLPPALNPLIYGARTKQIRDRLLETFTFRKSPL
Procedure, shortened: as §1

O56A3 = tested on: T3, O56A3
T3 sequence (whole entry): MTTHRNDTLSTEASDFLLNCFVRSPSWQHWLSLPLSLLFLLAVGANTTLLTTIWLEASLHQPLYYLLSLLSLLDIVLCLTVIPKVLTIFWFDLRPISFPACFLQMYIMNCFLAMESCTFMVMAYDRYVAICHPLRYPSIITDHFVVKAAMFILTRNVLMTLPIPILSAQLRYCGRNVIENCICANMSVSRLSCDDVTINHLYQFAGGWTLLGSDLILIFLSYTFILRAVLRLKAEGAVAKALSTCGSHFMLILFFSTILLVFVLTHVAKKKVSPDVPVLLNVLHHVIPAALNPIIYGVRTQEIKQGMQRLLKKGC
Procedure, shortened: as §1

O56B1 = tested on: T4, O56B1
T4 sequence (whole entry): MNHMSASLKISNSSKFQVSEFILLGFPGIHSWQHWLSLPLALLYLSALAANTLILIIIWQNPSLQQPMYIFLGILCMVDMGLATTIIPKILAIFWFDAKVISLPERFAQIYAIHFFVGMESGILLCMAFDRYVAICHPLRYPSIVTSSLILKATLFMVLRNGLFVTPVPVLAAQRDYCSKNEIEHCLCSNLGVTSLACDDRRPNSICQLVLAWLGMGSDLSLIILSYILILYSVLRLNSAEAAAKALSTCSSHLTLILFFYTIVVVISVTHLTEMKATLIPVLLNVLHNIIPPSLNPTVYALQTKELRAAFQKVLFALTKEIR
Procedure, shortened: as §1

O56B4 = tested on: T5, O56B4
T5 sequence (whole entry): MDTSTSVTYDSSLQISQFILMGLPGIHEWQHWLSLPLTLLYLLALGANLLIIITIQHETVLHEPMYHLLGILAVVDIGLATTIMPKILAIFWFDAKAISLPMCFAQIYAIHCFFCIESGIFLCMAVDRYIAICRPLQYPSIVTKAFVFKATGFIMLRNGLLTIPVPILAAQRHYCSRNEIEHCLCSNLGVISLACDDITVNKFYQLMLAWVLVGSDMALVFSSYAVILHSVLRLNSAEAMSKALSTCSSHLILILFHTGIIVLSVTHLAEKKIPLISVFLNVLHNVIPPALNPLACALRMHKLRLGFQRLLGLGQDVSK
Procedure, shortened: as §1

O5AC2 = tested on: T6, O5AC2
T6 sequence (whole entry): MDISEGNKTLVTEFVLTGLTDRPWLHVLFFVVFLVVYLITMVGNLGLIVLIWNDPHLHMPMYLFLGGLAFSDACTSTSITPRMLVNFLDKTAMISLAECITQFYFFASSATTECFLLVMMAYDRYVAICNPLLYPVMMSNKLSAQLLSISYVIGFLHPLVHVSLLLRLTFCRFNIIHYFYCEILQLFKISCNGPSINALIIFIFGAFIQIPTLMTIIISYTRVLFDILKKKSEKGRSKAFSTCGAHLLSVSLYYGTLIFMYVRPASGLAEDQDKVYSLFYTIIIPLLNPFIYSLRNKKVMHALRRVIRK
Procedure, shortened: as §1

O5AK2 = tested on: T7, O5AK2
T7 sequence (whole entry): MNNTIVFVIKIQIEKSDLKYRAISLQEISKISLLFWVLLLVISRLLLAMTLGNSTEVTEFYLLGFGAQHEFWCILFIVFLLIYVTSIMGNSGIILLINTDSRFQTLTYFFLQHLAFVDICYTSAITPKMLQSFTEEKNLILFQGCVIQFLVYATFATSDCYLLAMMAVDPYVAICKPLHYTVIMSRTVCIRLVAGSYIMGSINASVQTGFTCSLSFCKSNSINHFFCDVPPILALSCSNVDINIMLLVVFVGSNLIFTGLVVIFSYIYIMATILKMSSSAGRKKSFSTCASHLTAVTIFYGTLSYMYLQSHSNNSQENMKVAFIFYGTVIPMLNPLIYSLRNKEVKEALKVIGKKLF
Procedure, shortened: as §1

O5AK3 = tested on: T8, O5AK3
T8 sequence (whole entry): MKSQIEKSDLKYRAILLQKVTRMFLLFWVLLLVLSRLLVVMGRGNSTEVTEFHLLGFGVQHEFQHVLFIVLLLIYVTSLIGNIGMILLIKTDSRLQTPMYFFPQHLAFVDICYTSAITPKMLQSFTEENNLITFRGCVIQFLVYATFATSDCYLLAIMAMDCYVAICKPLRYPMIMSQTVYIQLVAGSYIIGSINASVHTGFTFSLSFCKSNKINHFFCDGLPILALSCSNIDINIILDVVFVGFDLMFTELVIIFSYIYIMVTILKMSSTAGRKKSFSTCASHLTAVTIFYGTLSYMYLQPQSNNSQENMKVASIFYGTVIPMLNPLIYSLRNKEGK
Procedure, shortened: as §1

O5AL1 = tested on: T9, O5AL1
T9 sequence (whole entry): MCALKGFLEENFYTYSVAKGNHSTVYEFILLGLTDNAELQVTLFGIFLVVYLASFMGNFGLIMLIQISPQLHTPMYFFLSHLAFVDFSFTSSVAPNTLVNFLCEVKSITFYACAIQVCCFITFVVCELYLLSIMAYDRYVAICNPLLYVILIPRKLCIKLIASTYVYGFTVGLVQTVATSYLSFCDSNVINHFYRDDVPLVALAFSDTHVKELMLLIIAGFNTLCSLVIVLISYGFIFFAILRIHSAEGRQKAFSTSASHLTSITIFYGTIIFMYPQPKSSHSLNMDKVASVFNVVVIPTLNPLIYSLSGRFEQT
Procedure, shortened: as §1

O5AP2 = tested on: T10, O5AP2
T10 sequence (whole entry): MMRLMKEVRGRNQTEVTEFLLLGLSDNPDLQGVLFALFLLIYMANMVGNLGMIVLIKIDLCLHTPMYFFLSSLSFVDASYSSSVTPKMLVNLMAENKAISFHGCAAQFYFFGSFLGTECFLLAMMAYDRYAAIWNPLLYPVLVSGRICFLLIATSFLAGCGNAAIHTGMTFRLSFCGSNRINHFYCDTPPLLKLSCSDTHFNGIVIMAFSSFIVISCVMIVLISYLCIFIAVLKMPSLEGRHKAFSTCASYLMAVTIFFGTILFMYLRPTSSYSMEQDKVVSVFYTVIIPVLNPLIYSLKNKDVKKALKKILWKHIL
Procedure, shortened: as §1

O5AU1 = tested on: T11, O5AU1
T11 sequence (whole entry): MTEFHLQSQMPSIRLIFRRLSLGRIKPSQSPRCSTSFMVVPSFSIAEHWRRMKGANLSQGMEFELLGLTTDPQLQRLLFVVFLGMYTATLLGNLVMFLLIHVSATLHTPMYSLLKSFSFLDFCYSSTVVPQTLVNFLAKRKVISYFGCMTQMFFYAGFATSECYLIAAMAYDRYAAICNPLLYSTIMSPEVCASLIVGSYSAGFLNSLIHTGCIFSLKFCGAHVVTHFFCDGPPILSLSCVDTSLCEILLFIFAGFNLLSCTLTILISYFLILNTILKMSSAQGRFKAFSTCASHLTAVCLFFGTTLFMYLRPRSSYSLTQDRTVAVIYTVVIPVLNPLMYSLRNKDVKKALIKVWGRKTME
Procedure, shortened: as §1

O5H14 = tested on: T12, O5H14
T12 sequence (whole entry): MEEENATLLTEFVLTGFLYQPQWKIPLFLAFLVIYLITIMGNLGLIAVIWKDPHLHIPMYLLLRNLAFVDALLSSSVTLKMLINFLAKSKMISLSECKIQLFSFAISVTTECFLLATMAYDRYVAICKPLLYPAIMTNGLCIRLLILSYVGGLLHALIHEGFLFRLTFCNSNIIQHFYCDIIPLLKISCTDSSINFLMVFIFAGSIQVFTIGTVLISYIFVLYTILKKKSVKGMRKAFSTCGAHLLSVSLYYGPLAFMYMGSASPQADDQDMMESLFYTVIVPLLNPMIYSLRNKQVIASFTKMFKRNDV
Procedure, shortened: as §1

O6C68 = tested on: T13, O6C68
T13 sequence (whole entry): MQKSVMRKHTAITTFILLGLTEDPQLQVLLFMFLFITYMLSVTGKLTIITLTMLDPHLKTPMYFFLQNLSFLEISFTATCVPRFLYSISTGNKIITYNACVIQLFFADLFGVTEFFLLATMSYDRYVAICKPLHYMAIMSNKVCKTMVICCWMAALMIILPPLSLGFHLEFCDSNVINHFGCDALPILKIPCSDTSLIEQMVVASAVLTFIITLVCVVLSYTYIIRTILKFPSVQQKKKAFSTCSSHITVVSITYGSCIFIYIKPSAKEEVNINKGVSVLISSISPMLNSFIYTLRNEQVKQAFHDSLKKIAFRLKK
Procedure, shortened: as §1

O6C70 = tested on: T14, O6C70
T14 sequence (whole entry): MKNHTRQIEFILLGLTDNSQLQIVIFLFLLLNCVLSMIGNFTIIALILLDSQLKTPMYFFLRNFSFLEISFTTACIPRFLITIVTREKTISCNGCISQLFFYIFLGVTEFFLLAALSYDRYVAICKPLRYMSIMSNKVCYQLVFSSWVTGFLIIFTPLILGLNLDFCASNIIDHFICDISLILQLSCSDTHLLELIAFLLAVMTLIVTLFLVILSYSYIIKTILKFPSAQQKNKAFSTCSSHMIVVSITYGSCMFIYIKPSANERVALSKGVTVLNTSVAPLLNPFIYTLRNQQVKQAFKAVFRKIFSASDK
Procedure, shortened: as §1

O7E24 = tested on: T15, O7E24
T15 sequence (whole entry): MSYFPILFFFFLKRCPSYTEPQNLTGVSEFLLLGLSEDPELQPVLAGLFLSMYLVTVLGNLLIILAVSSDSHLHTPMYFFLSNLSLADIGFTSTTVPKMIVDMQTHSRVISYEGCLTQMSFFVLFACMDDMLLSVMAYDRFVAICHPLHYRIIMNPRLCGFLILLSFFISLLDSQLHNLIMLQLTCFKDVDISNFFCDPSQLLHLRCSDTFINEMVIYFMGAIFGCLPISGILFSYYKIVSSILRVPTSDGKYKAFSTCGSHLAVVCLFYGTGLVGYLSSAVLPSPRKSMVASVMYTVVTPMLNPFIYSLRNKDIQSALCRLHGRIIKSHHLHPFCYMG
Procedure, shortened: as §1

OR10A3 (Homo sapiens) = target: T16, OR10A3 (Homo sapiens) (UniProt P58181)
T16 sequence (whole entry): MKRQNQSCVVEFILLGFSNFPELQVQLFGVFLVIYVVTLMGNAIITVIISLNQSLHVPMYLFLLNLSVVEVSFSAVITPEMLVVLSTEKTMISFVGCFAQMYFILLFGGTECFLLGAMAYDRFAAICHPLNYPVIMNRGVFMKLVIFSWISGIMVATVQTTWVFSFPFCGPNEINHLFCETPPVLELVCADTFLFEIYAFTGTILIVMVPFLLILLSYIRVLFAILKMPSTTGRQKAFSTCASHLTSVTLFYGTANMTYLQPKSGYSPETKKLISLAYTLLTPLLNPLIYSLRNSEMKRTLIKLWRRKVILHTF
Procedure, shortened: as §1

Row | Compound | odorant receptor agonist call (O52R1) | odorant receptor agonist call (O52W1) | odorant receptor agonist call (O56A3) | odorant receptor agonist call (O56B1) | odorant receptor agonist call (O56B4) | odorant receptor agonist call (O5AC2) | odorant receptor agonist call (O5AK2) | odorant receptor agonist call (O5AK3) | odorant receptor agonist call (O5AL1) | odorant receptor agonist call (O5AP2) | odorant receptor agonist call (O5AU1) | odorant receptor agonist call (O5H14) | odorant receptor agonist call (O6C68) | odorant receptor agonist call (O6C70) | odorant receptor agonist call (O7E24) | odorant receptor agonist call (OR10A3 (Homo sapiens))
1 | CC12CCC(C1)C(C)(C)C2=O (stereo not drawn) | inactive | inactive | inactive | inactive | inactive | inactive | inactive | inactive | inactive | inactive | inactive | inactive | inactive | inactive | inactive | inactive
2 | CCCCCCCC=O | inactive | inactive | inactive | inactive | inactive | inactive | inactive | inactive | inactive | inactive | inactive | inactive | inactive | inactive | inactive | inactive
3 | CC(=O)c1ccccc1 |  |  | inactive | inactive | inactive | inactive | inactive | inactive | inactive | inactive | inactive | inactive |  | inactive | inactive | inactive
4 | CC(C)(C)c1ccc(CCC=O)cc1 | inactive | inactive | inactive | inactive | inactive | inactive | inactive | inactive | inactive | inactive | inactive | inactive | inactive | inactive | inactive | inactive
5 | CCCCCC(C)=O |  |  | inactive | inactive | inactive | inactive | inactive | inactive | inactive | inactive | inactive | inactive |  | inactive | inactive | inactive
6 | CCCCCCCOC(C)=O | inactive | inactive | inactive | inactive | inactive | inactive | inactive | inactive | inactive | inactive | inactive | inactive | inactive | inactive | inactive | inactive
7 | C=C(C)C1CCC2=CC(=O)CC(C)C2(C)C1 (stereo not drawn) | active | active |  |  |  |  |  |  |  |  |  |  | inactive |  |  | 

Source: the M2OR odorant receptor database
